Measured values reported in paper PMC9711881.
Results are given in words; binding and its absence hold for the method and conditions named. Binding seen in cells or lysates may run through a third protein. Some binding calls cover weakened binding; strength is not graded here. Sequences can lack the tags named with a protein.

Biological target: T1, Myc-tagged mouse cyclin G1 (mouse) (UniProt P51945)
T1 sequence: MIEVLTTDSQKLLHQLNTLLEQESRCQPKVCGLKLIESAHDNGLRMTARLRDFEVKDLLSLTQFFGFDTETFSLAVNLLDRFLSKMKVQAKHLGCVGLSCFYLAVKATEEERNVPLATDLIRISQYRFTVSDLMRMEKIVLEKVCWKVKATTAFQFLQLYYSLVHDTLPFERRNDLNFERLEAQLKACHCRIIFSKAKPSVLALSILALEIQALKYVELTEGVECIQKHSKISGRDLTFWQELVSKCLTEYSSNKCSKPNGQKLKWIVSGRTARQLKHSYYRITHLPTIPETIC
Assay: co-IP; HEK293T transfected with Myc-CG1, lysed in M-PER 48 h later; anti-Myc (9E10) antibody on 200 ug whole-cell lysate overnight at 4 C, Protein A/G agarose; washed 3 times with PBS, then PBS with 500 mM NaCl; Western blot for Myc-CG1 and CDK5

- binding: binds
Substance: cyclin-dependent kinase 5 (from UniProt Q00535 1-292)
